The assay addresses Enhancer of Zeste Homolog-2 (EZH2) (human (endogenous in EA.hy926 and HUVEC)) (UniProt Q15910). Put plainly: co-IP; co-immunoprecipitation using EZH2, blot for 14-3-3 epsilon; EC, untreated control (Supplementary Fig. 7B).

By UniProt entry, the sequences of proteins in these tests, tags left out.
UniProt Q15910: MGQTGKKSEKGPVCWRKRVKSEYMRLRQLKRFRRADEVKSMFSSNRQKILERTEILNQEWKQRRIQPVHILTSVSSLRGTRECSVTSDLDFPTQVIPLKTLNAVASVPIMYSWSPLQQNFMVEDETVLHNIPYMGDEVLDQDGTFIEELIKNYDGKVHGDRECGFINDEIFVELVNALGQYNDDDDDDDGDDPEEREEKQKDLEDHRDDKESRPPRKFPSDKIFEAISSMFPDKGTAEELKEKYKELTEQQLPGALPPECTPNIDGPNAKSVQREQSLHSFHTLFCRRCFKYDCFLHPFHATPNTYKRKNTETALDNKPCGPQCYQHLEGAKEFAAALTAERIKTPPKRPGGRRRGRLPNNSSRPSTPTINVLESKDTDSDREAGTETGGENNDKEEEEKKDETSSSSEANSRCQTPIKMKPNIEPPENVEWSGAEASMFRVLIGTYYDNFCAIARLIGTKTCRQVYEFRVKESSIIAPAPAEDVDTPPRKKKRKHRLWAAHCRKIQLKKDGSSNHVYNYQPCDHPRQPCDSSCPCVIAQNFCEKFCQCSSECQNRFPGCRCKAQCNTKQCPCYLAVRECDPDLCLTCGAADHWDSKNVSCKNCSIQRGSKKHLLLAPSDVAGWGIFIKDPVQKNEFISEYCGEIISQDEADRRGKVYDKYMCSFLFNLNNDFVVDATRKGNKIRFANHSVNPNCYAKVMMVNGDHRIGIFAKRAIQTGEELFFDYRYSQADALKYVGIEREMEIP
UniProt P62258: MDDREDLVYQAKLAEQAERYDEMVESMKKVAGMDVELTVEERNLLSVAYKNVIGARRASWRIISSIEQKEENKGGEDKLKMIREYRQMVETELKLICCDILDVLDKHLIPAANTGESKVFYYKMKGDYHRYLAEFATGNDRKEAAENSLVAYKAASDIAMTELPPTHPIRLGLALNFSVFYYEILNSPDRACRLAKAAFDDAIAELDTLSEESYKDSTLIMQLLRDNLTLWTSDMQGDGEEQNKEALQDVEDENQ

These are yes or no findings as the source states them, for the method shown. In cells and extracts the contact can be indirect. Some binding calls cover weakened binding; strength is not graded here.

Turning to “14-3-3 epsilon (from UniProt P62258 1-255)”, the binding result is listed as “binds”.

Source of the values: article PMC12034783.
